# According to PubChem BioAssay AID624297 (National Center for Advancing Translational Sciences (NCATS), 2012):
# Screen size: about 340,000 compounds; about 6,200 (1.8%) were called active. Inconclusive means that the source gave no clear call. Such entries were picked first, then a sample of the others. Calls follow the shape of the dose curve; as a rule, active = well fitted activation curve with a large enough effect; inconclusive = small, poorly fitted or top-dose-only effect; inactive = no such curve, though single readings can be large or run the other way. Potencies of inconclusive entries are doubtful fits and often do not repeat.
# Test: A quantitative high throughput screen for small molecules that induce DNA re-replication in SW480 colon adenocarcinoma cells. Also: nearly all actives have a fitted effect of over 55% in size. As to re-replication activation: % of control where 0% means no effect.
# Settings: Hoechst DNA content imaging, 48 h; re-replication activation: at 46.1 µM (top of the series)
# Method in brief: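 Image-based read-out: total Hoechst fluorescence of nuclei (405 nm excitation, 500-530 nm emission), with hits raising the fraction of high-intensity nuclei. SW480 colon cells incubated 48 hr with compounds at 37 C.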
# Potency is read from the fitted curve at half-maximal effect.
SMILES,Potency,re-replication activation
COC(=O)Cn1c(O)c(N=NC(=O)CNC(=O)c2ccc3c(c2)OCCO3)c2ccccc21,"inconclusive: 0.0058 µM [activator, full curve, poor fit]",–
Cc1cccc(N2CC(C(=O)OCC(=O)c3c(N)n(CC(C)C)c(=O)n(C)c3=O)CC2=O)c1C (stereo not drawn),–,inactive: -12.4%
COc1ccc(-c2csc3ncnc(N4CCN(c5cccc(Cl)c5)CC4)c23)cc1,"inconclusive: 29.1 µM [activator, single point]",–
COc1ccc(OC)c(C(=O)/C=C/c2ccccc2C(F)(F)F)c1,"inconclusive: 20.6 µM [activator, single point]",–
COc1ccc(/C=C2\SC(=O)N(CC(=O)Nc3cccnc3)C2=O)cc1OC,"inconclusive: 7.31 µM [activator, partial curve, poor fit]",–
COc1ccc(CC(=O)Nc2nncs2)cc1OC,active: 8.2 µM,–
CCOC(=O)c1c(C)n(-c2ccc(OC)cc2)c2ccc(O)c(CN(C)C)c12,"inconclusive: 13 µM [activator, partial curve, poor fit]",–
Cc1ccc(S(=O)(=O)Nc2cc(Cl)c(O)c3ncccc23)cc1,active: 5.17 µM,–
CCCc1ccc(-c2cc(NC(=O)CSc3nnc(N)s3)n(-c3ccccc3)n2)cc1,–,inactive: 7.15%
COc1cccc(C(=O)N/N=C/c2ccc(Oc3ccc([N+](=O)[O-])cn3)c(OC)c2)c1,"inconclusive: 29.1 µM [activator, single point]",–
O=C(COc1ccccc1-c1ccccc1)N/N=C/c1ccccn1,–,inactive: 3.62%
CC(=O)/C(=N/Nc1cccc(Cl)c1)Sc1nnc(C(O)c2ccccc2)n1-c1ccccc1 (stereo not drawn),–,inactive: 1.25%
Cc1ccc2[nH]c(C)c(/C=N/Nc3nc4ccccc4s3)c2c1,"inconclusive: 29.1 µM [activator, single point]",–
Cc1ccc(NC(=O)CSc2sc3c(O)cc(=O)[nH]c3c2C#N)c(F)c1,"inconclusive: 23.1 µM [activator, single point]",–
CCN1CCN(S(=O)(=O)c2ccc(Cl)c(C(=O)Nc3ccccc3N3CCCCC3)c2)CC1,"inconclusive: 6.51 µM [activator, partial curve, poor fit]",–
COc1cccc(-c2cccc(NC(=O)C3CCN(CC4CCOC4)CC3)c2)c1 (stereo not drawn),"inconclusive: 29.1 µM [activator, single point]",–
CC(C)COc1ccc(CSCCNC(=S)Nc2ccccc2)cc1,"inconclusive: 25.9 µM [activator, partial curve, poor fit]",–
COc1ccccc1CNC(=O)C/C(C)=N/NC(=O)COc1ccc(C)cc1Br,–,inactive: -370%

# Quoted from the listing.
# `CC(C)COc1ccc(CSCCNC(=S)Nc2ccccc2)cc1` | Potency: inconclusive: 25.9 µM [activator, partial curve, poor fit]
# `Cc1ccc(NC(=O)CSc2sc3c(O)cc(=O)[nH]c3c2C#N)c(F)c1` | Potency: inconclusive: 23.1 µM [activator, single point]
